Experimental data published in paper PMC6915307.
No constants are given. Whether binding was seen depends on the method and setting. Binding seen in cells or lysates may run through a third protein. Some results given as binding are weak or reduced against the parent protein; the word gives no strength.

Chains of the proteins cited; added tags and fusions are not shown.
UniProt P49023: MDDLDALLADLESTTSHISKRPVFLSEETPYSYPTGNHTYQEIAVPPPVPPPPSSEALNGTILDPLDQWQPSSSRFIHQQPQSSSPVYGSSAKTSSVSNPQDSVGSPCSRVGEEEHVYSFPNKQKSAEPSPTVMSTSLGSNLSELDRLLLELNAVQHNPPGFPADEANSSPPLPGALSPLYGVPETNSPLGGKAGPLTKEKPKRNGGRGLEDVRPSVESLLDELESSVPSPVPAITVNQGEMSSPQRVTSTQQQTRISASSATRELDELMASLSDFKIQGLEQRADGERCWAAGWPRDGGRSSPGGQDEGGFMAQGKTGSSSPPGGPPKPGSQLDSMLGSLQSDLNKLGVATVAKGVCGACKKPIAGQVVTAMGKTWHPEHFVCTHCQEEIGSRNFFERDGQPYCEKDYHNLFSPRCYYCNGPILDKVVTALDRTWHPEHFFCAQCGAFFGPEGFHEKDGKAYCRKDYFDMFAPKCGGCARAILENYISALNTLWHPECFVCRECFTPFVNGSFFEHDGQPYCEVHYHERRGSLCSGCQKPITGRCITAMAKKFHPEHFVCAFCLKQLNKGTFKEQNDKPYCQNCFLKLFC
UniProt P42768: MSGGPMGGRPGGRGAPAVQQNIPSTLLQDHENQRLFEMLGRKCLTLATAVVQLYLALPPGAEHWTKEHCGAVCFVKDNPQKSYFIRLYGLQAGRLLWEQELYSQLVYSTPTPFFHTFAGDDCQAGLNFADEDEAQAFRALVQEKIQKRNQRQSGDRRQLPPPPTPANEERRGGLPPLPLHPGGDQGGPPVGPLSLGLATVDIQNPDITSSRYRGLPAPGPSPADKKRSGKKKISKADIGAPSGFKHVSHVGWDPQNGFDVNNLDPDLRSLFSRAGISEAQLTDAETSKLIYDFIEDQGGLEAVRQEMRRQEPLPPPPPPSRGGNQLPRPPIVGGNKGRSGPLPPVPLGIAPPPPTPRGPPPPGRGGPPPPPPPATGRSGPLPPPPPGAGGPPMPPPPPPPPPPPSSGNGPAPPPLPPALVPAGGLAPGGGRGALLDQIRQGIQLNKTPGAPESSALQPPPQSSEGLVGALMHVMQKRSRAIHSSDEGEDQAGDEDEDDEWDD
UniProt O96013: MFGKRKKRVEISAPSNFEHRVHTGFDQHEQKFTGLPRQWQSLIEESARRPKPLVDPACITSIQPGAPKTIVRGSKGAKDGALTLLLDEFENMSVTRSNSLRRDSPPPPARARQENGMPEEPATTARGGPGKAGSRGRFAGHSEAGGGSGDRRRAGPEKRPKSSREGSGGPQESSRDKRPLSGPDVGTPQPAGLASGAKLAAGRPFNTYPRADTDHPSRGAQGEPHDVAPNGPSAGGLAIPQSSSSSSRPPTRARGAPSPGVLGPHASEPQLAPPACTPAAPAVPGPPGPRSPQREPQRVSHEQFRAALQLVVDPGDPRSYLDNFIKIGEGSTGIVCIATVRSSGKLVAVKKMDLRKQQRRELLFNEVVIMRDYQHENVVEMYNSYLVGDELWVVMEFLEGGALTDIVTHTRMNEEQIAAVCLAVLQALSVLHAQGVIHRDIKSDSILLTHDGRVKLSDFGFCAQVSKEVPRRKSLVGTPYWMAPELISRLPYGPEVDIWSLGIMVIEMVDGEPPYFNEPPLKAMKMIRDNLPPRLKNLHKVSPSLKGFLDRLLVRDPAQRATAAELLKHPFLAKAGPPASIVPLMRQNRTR

Legend:
[1] = biological target: paxillin (human (endogenous in THP-1)) (UniProt P49023); assay: co-IP; THP-1 cells stably expressing EGFP-PAK4, seeded on fibronectin with TGF-beta for 16 h; lysate (0.5% NP-40 lysis buffer) incubated with 1-2 ug anti-paxillin or anti-vinculin overnight at 4 C, protein A/G agarose; blots probed for PAK4 and reprobed for GFP
[2] = biological target: paxillin (human (endogenous in THP-1)) (UniProt P49023); assay: co-IP; endogenous PAK4 in immunoprecipitates when a large number of cells was used (Figure S4C)
[3] = biological target: WASP (human (endogenous in THP-1)) (UniProt P42768); assay: co-IP; anti-WASP immunoprecipitation, blot for PAK4 (Figure S4D)

| Substance | binding [1] | binding [2] | binding [3] |
| --- | --- | --- | --- |
| EGFP-PAK4 (from UniProt O96013 1-591) (enzyme) | binds | – | – |
| endogenous PAK4 (from UniProt O96013 1-591) (enzyme) | – | binds weakly | no binding |
